{"sequences": {"note": "By UniProt entry, the sequences of proteins in these tests, tags left out. Chains listed by the source or under a name are the forms on record and can include a tag or linker. Residues count along the entry.", "UniProt P43146, 26-1447, form in doubt": "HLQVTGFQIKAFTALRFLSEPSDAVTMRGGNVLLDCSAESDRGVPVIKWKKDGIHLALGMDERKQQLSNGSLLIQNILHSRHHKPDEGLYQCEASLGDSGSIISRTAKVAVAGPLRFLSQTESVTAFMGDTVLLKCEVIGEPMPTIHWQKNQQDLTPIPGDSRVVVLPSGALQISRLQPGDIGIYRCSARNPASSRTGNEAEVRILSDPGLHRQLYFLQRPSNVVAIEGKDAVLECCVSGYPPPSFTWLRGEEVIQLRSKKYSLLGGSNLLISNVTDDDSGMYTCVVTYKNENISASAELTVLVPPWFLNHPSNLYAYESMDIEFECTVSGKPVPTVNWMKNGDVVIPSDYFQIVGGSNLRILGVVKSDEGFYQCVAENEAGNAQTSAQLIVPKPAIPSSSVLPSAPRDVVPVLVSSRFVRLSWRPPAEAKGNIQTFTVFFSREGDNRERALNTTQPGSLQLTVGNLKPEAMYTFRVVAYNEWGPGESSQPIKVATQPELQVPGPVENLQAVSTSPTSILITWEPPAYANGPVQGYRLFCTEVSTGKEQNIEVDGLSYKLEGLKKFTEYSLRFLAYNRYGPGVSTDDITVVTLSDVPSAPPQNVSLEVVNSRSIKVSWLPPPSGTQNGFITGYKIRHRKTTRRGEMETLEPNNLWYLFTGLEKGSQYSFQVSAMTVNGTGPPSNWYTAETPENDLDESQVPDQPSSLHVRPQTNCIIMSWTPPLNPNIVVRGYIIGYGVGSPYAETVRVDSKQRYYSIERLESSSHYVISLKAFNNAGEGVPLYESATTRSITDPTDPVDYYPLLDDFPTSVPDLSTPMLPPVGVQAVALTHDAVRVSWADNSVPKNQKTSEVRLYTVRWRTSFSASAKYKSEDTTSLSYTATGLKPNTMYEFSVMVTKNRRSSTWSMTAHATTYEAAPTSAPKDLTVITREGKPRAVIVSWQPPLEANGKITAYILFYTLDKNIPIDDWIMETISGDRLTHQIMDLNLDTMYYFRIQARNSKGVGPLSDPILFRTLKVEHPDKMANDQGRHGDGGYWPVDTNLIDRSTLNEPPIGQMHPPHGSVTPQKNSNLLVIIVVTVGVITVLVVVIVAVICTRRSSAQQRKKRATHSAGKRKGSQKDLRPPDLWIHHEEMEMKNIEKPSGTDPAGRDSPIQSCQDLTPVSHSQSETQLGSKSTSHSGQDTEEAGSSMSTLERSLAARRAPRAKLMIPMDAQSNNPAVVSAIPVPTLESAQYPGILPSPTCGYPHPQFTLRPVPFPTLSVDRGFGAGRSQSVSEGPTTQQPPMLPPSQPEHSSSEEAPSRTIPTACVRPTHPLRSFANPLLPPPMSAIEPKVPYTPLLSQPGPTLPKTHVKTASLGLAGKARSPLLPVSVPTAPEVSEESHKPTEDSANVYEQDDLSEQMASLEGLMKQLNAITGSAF"}, "source": "patent US20230374151A1", "about": "(GlaxoSmithKline, published 2023)", "target": "DCC netrin 1 receptor (DCC) (human, UniProt P43146 26-1447)", "experiment": "cell-based or functional assay", "data": [{"binder": "TnMUC1 CAR MB053 (tagless, D16 lentiviral vector) on human T cells (other) DIVMTQSPDSLAVSLGERATINCKSSQSLLNSGDQKNYLTWYQQKPGQPPKLLIFWASTRESGVPDRFSGSGSGTDFTLTISSLQAEDVAVYYCQNDYSYPLTFGQGTKLEIKGGGGSGGGGSGGGGSGGGGSQVQLVQSGAEVKKPGSSVKVSCKASGYTFTDHAIHWVRQAPGQGLEWMGHFSPGNTDIKYNDKFKGRVTITADKSTSTAYMELSSLRSEDTAVYYCKTSTFFFDYWGQGTTVTVSSRTFVPVFLPAKPTTTPAPRPPTPAPTIASQPLSLRPEACRPAAGGAVHTRGLDFACDIYIWAPLAGTCGVLLLSLVITLYCNHRNKRGRKKLLYIFKQPFMRPVQTTQEEDGCSCRFPEEEEGGCELRVKFSRSADAPAYQQGQNQLYNELNLGRREEYDVLDKRRGRDPEMGGKPRRKNPQEGLYNELQKDKMAEAYSEIGMKGERRRGKGHDGLYQGLSTATKDTYDALHMQALPPR", "values": [{"measurement": "IFN-γ production (MSD), 48 h co-culture with DCC expressing HEK cells, relative to co-culture with wild type Jurkat cells", "value": "~2", "unit": "times"}, {"measurement": "IFN-γ production (MSD), co-culture with DCC transfected HEK cells, fold increase above untransduced T cells", "value": 3240, "unit": "fold"}]}]}
